# According to publication PMC11633749, “Identification of the Wnt signal peptide that directs secretion on extracellular vesicles” (Science Advances, 2024):
# Results are given in words; binding and its absence hold for the method and conditions named. For some assays here: In cells and extracts the contact can be indirect. Some entries that bind do so weakly or less than the wild type. For some assays here: Tags and fused reporters may be left off the sequences shown.
# T1: myc-tagged Wnt7a-BirA (UniProt O00755)
# T1 sequence: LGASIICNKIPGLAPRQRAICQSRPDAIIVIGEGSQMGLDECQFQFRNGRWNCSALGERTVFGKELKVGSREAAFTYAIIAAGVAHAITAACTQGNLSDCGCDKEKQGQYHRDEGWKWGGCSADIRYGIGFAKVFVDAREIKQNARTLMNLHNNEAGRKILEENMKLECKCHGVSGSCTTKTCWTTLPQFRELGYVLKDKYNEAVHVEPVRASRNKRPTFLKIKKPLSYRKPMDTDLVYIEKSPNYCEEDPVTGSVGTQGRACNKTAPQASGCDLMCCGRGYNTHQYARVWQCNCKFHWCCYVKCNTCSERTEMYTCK
# T2: full-length Wnt7a-HA (Wnt7a-FL) (human) (UniProt O00755)
# T2 sequence: T1 sequence
# T3: COPB2 (coatomer protein), human (human (endogenous in HEK293T)) (UniProt P35606)
# T3 sequence: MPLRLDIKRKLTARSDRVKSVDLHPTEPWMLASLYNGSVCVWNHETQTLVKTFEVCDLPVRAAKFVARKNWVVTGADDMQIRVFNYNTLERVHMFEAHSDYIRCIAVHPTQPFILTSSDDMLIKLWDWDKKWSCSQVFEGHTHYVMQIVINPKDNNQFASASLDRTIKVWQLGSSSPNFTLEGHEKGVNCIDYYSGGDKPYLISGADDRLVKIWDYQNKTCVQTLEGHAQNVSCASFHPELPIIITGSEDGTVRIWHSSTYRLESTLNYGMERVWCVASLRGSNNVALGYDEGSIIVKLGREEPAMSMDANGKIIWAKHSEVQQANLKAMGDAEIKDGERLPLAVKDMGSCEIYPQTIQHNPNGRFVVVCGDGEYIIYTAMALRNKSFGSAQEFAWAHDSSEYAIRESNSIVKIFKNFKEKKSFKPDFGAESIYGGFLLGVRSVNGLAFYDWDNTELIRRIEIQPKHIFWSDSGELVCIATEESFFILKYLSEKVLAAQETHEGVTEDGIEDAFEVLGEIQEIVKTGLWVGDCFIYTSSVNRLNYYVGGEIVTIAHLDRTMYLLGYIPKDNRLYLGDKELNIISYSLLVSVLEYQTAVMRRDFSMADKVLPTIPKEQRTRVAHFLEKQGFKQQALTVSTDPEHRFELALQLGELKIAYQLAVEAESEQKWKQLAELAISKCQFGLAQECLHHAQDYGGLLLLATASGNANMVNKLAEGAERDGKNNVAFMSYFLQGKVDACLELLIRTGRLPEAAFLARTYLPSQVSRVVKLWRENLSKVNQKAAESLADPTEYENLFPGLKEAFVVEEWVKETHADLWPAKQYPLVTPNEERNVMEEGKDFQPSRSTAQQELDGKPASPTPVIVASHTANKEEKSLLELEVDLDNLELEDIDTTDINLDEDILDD
# T4: COPB2_(1–304), N-terminal WD repeat of COPB2 (S. cerevisiae) (UniProt P41811)
# T4 sequence: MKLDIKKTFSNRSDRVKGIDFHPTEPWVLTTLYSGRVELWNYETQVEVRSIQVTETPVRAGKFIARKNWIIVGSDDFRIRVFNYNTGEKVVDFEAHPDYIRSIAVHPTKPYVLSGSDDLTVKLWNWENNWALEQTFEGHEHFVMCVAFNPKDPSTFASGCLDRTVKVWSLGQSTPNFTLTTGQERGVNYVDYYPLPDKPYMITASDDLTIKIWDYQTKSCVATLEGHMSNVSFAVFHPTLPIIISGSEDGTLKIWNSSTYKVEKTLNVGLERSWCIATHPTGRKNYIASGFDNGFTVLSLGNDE
# B1: COPB2 (coatomer protein), mouse (protein, UniProt O55029 1-905)
# chain: MPLRLDIKRKLTARSDRVKSVDLHPTEPWMLASLYNGSVCVWNHETQTLVKTFEVCDLPVRAAKFVARKNWVVTGADDMQIRVFNYNTLERVHMFEAHSDYIRCIAVHPTQPFILTSSDDMLIKLWDWDKKWSCSQVFEGHTHYVMQIVINPKDNNQFASASLDRTIKVWQLGSSSPNFTLEGHEKGVNCIDYYSGGDKPYLISGADDRLVKIWDYQNKTCVQTLEGHAQNVSCASFHPELPIIITGSEDGTVRIWHSSTYRLESTLNYGMERVWCVASLRGSNNVALGYDEGSIIVKLGREEPAMSMDANGKIIWAKHSEVQQANLKAMGDTEIKDGERLPLAVKDMGSCEIYPQTIQHNPNGRFVVVCGDGEYIIYTAMALRNKSFGSAQEFAWAHDSSEYAIRESNSIVKIFKNFKEKKSFKPDFGAESIYGGFLLGVRSVNGLAFYDWENTELIRRIEIQPKHIFWSDSGELVCIATEESFFILKYLSEKVLAAQETHEGVTEDGIEDAFEVLGEIQEIVKTGLWVGDCFIYTSSVNRLNYYVGGEIVTIAHLDRTMYLLGYIPKDNRLYLGDKELNIVSYSLLVSVLEYQTAVMRRDFSMADKVLPTIPKEQRTRVAHFLEKQGFKQQALTVSTDPEHRFELALQLGELKIAYQLAVEAESEQKWKQLAELAISKCQFSLAQECLHHAQDYGGLLLLATASGNASMVNKLAEGAERDGKNNVAFMSYFLQGKLDACLELLIRTGRLPEAAFLARTYLPSQVSRVVKLWRENLSKVNQKAAESLADPTEYENLFPGLKEAFVVEEWVKETHADLWPAKQYPLVTPNEERNVMEEAKGFQPSRPTAQQEPDGKPASSPVIMASQTTHKEEKSLLELEVDLDNLELEDIDTTDINLDEDILDD
# B2: COPB2 (coatomer protein), human (protein, UniProt P35606 1-906)
# chain: T3 sequence
# B3: full-length Wnt7a-HA (Wnt7a-FL) (protein, UniProt O00755 32-349)
# chain: T1 sequence
# B4: Wnt_(252–257) peptide (LKIKKP) (peptide)
# peptide: LKIKKP
# notes: also called C-terminal half of the polypeptide
# Experiments:
# [1] = target: T1, myc-tagged Wnt7a-BirA; assay: proximity ligation; Duolink PLA in fixed murine primary myotubes expressing Wnt7a-BirA or BirA; antibodies to Wnt7a and COPA or COPB2
# [2] = target: T2, full-length Wnt7a-HA (Wnt7a-FL) (human); assay: co-IP; lysate of HEK293T cells overexpressing Wnt7a-HA; immunoprecipitation with COPB2 or HA antibody on Dynabeads Protein G; 50 mM tris pH 7.5, 150 mM NaCl, 0.5% Triton X-100; immunoblot
# [3] = target: T3, COPB2 (coatomer protein), human (human (endogenous in HEK293T)); assay: as above
# [4] = target: T4, COPB2_(1–304), N-terminal WD repeat of COPB2 (S. cerevisiae); assay: crystal structure; COPB2 1-304 at 10 mg/ml (0.28 mM) incubated with 3 mM LKIKKP peptide; crystals in 0.1 M Hepes pH 7.0, 2.0 M AmSO4; molecular replacement with PDB 2YNN; both purified
# [5] = target: T4, COPB2_(1–304), N-terminal WD repeat of COPB2 (S. cerevisiae); assay: condition: 450 μM of each peptide into 20 μM COPB2_(1–304); ITC; 450 μM of each peptide titrated into 20 μM COPB2 1-304; 25°C; 150 mM NaCl, 0.5 mM TCEP, 25 mM Hepes pH 7.5; one-site model; both purified
binder,measurement,setting,value
B1,binding,[1],binds
B2,binding,[2],binds
B3,binding,[3],binds
B4,binding,[4],binds
"SRNKRPT (peptide, UniProt O00755 244-250) [N-terminal half of the EBP polypeptide (244 to 250)]",binding,[5],no binding
